Results are given in words; binding and its absence hold for the method and conditions named.
Legend:
BSA (bovine) = BSA (bovine) (UniProt P02769); experiment: ELISA, coated BSA (30 mg/ml), purified scFv, HRP anti-polyhistidine detection
[1] = biological target: β-galactosidase [β-galactosidase: P00722]; experiment: mammalian two-hybrid luciferase assay in COS7 cells, scFv-VP16 prey with GAL4-DBD-lacZ bait
[2] = biological target: β-galactosidase [β-galactosidase: P00722]; experiment: yeast two-hybrid (His growth, β-gal); data not shown

By UniProt entry, the sequences of proteins in these tests, tags left out. Residues count along the entry.
UniProt P02769, residues 25-607: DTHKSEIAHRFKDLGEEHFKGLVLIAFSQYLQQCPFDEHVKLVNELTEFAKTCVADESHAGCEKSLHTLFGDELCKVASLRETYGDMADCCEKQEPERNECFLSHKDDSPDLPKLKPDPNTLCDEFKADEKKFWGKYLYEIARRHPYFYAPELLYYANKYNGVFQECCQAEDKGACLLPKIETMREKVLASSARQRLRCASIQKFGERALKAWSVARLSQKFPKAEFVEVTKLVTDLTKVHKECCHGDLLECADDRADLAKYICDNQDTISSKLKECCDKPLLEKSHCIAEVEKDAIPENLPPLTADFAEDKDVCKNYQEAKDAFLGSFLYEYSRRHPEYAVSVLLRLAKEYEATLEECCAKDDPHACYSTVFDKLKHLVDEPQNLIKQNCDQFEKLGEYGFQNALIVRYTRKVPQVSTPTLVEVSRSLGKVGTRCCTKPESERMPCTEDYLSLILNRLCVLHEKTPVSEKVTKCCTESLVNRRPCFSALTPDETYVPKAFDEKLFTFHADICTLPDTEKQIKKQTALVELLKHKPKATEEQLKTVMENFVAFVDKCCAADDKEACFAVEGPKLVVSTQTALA

binding (BSA (bovine)): no binding (tested: 450 ng per well) | binding [1]: no binding | binding [2]: no binding
B1: anti-RAS scFv I21 (scFv)
scFv: EVQLLESGGGLVQPGGSLRLSCAASGFTFSSYAMSWVRQAPGKGLEWVSTISYGGSNTNYADSVKARFTISRDNSKNTLYLQMNSLRAEDTAVYYCAKGNNAFDYWGQGTLVTVSSGGGGSGGGGSGGGGSTDIQMTQSPSSLSASVGDRVTITCRASQSISSYLNWYQQKPGKAPKLLIYNASALQSGVPSRFSGSGSGTDFTLTISSLQPEDFATYYCQQYTSTPRTFGQGTKVEIKR
notes: also called ICAb I21

Reference: patent US20050276800A1 (MEDICAL RESEARCH COUNCIL, published 2005)
